Source: the supplement of paper PMC5407854, “Inhibitor of ppGalNAc-T3-mediated O-glycosylation blocks cancer cell invasiveness and lowers FGF23 levels” (eLife, 2017)
± gives the standard deviation of the averaged measurements. In all, about 1,700 compounds were measured (“T3 sensor activation Q score (MG/GFP ratio z-score vs DMSO controls)”: median about 0.25, highest 2% from about 1.9 on). The list shows a part of the results.

What follows are molecules tested on ppGalNAc-T3 sensor (assay: T3 sensor activation Q score (MG/GFP ratio z-score vs DMSO controls) (SD units); higher = more sensor activation (inhibition of ppGalNAc-T3 glycosylation)). Settings: HEK293 sensor cells; 10 µM; 6 h.
Procedure: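 Cells were treated with compound at 10 uM for 6 h, then MG/GFP ratio was read by flow cytometry (10,000 cells per well, duplicate wells). Q = (R - R_neg)/SD_neg relative to DMSO vehicle controls; the signal rises when the glycosyltransferase is inhibited.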

Row | Structure (SMILES) | T3 sensor activation Q score
1 | C(COC1CC2CC1C1C2CC2OC21)OC1CC2CC1C1C2CC2OC21 (configuration not stated) | 1.15
2 | [O-][n+]1nc2ccccc2c2ccccc21 | -1.15
3 | C=CCOc1ccc(S(C)(=O)=O)cc1 | 1.85
4 | CC1=CC(C)(C(Cl)(Cl)Cl)C(C)=C/C1=N/O (configuration not stated) | 0.15
5 | CCCCCCCCC(=O)c1c(OC)oc(C=O)cc1=O | -0.4
6 | CC(=O)NCCCOc1ccc([N+](=O)[O-])cc1Cl | -0.6
7 | Cc1nc2ccccc2nc1NS(=O)(=O)c1ccc(N)cc1 | -0.1
8 | Cc1ccc(N=Nc2ccc(N)cc2C)c(S(N)(=O)=O)c1 | 0.85
9 | O=C(Nc1cccc([N+](=O)[O-])c1)c1cccc(C(=O)Nc2cccc([N+](=O)[O-])c2)c1 | -0.25
10 | O=C(Nc1cccc2ccccc12)c1cc2c(cc1Br)OCO2 | 0.05
11 | Cn1ncc2c(Nc3ccccc3Cl)nc(Cl)nc21 | 0.95
12 | OCc1nc2nc(Cl)c(Cl)nc2[nH]1 | -1.15
13 | CCC1(CC)C(=O)NC(=S)N=C1N | 0.85
14 | CC(C)NC(=O)Nc1cccc(Cl)c1 | 0.3
15 | Cc1oc2c(c(C)nn2-c2ccccc2)c(=O)c1Cl | 1.1
16 | O=c1cccc2cc(O)c(O)c(O)c2c1O | 0.6

From compound 6 to 7, copied from above:
Row | Structure (SMILES) | T3 sensor activation Q score
6 | CC(=O)NCCCOc1ccc([N+](=O)[O-])cc1Cl | -0.6
7 | Cc1nc2ccccc2nc1NS(=O)(=O)c1ccc(N)cc1 | -0.1

Further structures:

Row | Structure (SMILES) | T3 sensor activation Q score
17 | CC(=O)Oc1c(C)c(OC(C)=O)c2c(c1C(C)=O)OC1CC(=O)C(C(C)=O)=C(O)C21C (configuration not stated) | -1.15
18 | O=C1C2C3C=CC(O3)C2C(=O)N1Nc1ccccc1 (configuration not stated) | 0.35
19 | Cc1nc(Nc2ncc(C(=O)Nc3c(C)cccc3Cl)s2)cc(N2CCN(CCO)CC2)n1 | 0.2
20 | Cc1c(Cl)cccc1Nc1ncccc1C(=O)OCC(O)CO (configuration not stated) | 0.45
21 | O=C(Nc1cccc(Cl)c1)Nn1cnnc1 | 0
22 | CCOc1ccc(NC(=O)C2CCCN(C)C2)cc1 (configuration not stated) | 0.6
23 | CCOC(=O)C(=O)Cc1nc2ccccc2s1 | 0.8
24 | FC(F)(F)c1cccc(-c2nc3nc(Cl)c(Cl)nc3[nH]2)c1 | -3.45
25 | COc1cc([C@@H]2c3cc4c(cc3[C@@H](O[C@@H]3O[C@@H]5CO[C@@H](c6cccs6)O[C@H]5[C@H](O)[C@H]3O)[C@H]3COC(=O)[C@H]23)OCO4)cc(OC)c1O | 0.475 ± 0.39
26 | Cc1ccc(C2C=CC(C#N)=CN2Cc2ccccc2)cc1 (configuration not stated) | 0.65
27 | COC(=O)C1CC(O)C(O)C(O)C1 (configuration not stated) | -0.5
28 | O=C(Nc1ccccc1)Nc1ccccn1 | -1.35
29 | NC(=O)c1ccc(Cl)c2ccccc12 | 0.45
30 | Nc1ccn([C@@H]2O[C@H](CO)[C@@H](O)[C@@H]2O)c(=O)n1 | 0.95
31 | c1ccc(Sc2ncnc3ccccc23)cc1 | -0.65
32 | CN(C)C(=O)c1cccc(COc2ccc(N3C(N)=NC(N)=NC3(C)C)cc2Cl)c1 | -0.1
